In PubChem BioAssay AID1347075 (National Center for Advancing Translational Sciences (NCATS), 2019):
Among all 400,000 compounds or so, about 5,500 (1.4%) were called active. Inconclusive results, whose numbers are uncertain, are shown with a selection of clear calls. Calls come from the whole dose curve; as a rule, active = well fitted cell-killing curve with a large enough effect; inconclusive = small, poorly fitted or top-dose-only effect, or effect the other way; inactive = flat fitted curve, though single readings scatter. Potencies beside an inconclusive call are fits to weak or partial responses and may not hold up.

Experiment: qHTS assay for MDR1-selective chemotherapeutics: Primary screen using the parental adenocarcinoma cell KB-3-1; note: nearly all actives have a fitted effect of over 60% in size
Conditions: KB-3-1 viability, CellTiter-Glo ATP luminescence, 72 h; activity change, negative = cytotoxic: at 46.1 µM (top of the series)
Method in brief: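 Luminescent ATP read-out (CellTiter-Glo) measures survival of drug-naive KB-3-1 cells after 72 h compound exposure at 37 °C. Titration series was screened from lowest to highest concentration, with DMSO vehicle plates as background controls.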
% is set by controls: 0 for no effect and ±100 for the full control effect; potency is the fitted concentration of half-maximal effect.

SMILES	Potency	activity change, negative = cytotoxic
COc1ccc(NC(=S)N(CCCN2CCCC(C)C2)Cc2cccs2)cc1 (stereo unspecified)	inactive	
CCCCCOc1ccc(C2c3c(oc4ccccc4c3=O)C(=O)N2c2nc(C)c(C)s2)cc1OCC (stereo unspecified)	inconclusive: 23.1 µM [rising, single point]	
C/C(=N/NC(=O)CCc1ccccc1)c1ccco1	inactive	
CC(C)(C)c1ccc(C(=O)OCC(=O)NCc2ccco2)cc1	inconclusive: 29.1 µM [cytotoxic, single point]	
CCOC(=O)c1c(NC(=O)C2CCCN2S(=O)(=O)c2cccc3nsnc23)sc(C)c1C (stereo unspecified)	inactive	
S=C(NCCc1ccccc1)N1CCN(C(c2ccccc2)c2ccccc2)CC1	inconclusive: 32.6 µM [cytotoxic, single point]	
Cc1cc(C)n2nc(SCc3cc(=O)oc4ccc5ccccc5c34)nc2n1	inconclusive: 23.1 µM [rising, single point]	
C=CC[C@@H](CC(=O)N(CCO)Cc1ccccc1)C(=O)NC[C@H](OC(=O)[C@@H](CC=C)CC(=O)OC(C)(C)C)c1ccccc1	inconclusive: 29.1 µM [cytotoxic, single point]	
CCc1nc2ccc(C(=O)NCCN3CCNC3=O)cn2c1N(C)CCC(C)C	inactive	
O=S(=O)(c1ccc2nc(Nc3ccccc3)ccc2c1)N1CCCCC1	inconclusive: 29.1 µM [cytotoxic, single point]	
O=C1COc2ccc(-c3csc(=Nc4ccc(OC(F)F)cc4)n3CC3CCCO3)cc2N1 (stereo unspecified)	inconclusive: 20.6 µM [cytotoxic, partial curve, poor fit]	
CN1CCCC1CCNc1ccc2sc3ccccc3c(=O)c2c1 (stereo unspecified)	inconclusive: 16.4 µM [cytotoxic, partial curve]	
Cc1nn(-c2ccccc2)c(Cl)c1CN(C(=O)CCl)c1cccc2ccccc12	active: 18.4 µM	
COc1ccccc1-c1nnc(SCC(=O)NCc2c(C)c(Cl)cc(C(C)C)c2O)o1	inactive	
O=C(C(c1ccccc1)c1ccccc1)N1CCN(Cc2ccc(Br)cc2)CC1	inactive	
O=C(Nc1ccc(O)c(-c2nc3ccccc3o2)c1)c1ccc(Br)cc1	inconclusive: 20.6 µM [cytotoxic, single point]	
CN(C)c1cccc(C(=O)Nc2nc3ccc(S(=O)(=O)N4CCCC4)cc3s2)c1	active: 10.3 µM	
COc1ccc(N2CCc3c(C)nc4c(OC)cccc4c32)cc1	active: 4.61 µM	
Cc1cc(C(=O)NC2CC(C)(C)Cc3c2cnn3-c2ccccc2)n[nH]1 (stereo unspecified)	inconclusive: 29.1 µM [cytotoxic, single point]	
O=C(NNc1nc(-c2ccc(Br)cc2)cs1)c1ccco1	inconclusive: 29.1 µM [cytotoxic, single point]	
CC(c1ccccc1)n1c(-c2ccccc2)n[nH]c1=S (stereo unspecified)		inconclusive: -46.1% [cytotoxic]
CN(c1ccccc1)c1cc(Br)nc(Br)c1	inconclusive: 20.6 µM [cytotoxic, single point]	
Cc1cc(C)c(C(=O)COC(=O)Cn2c(C)csc2=O)cc1C	inconclusive: 8.2 µM [rising, partial curve, poor fit]	
Cc1ccc(C)c(S(=O)(=O)Nc2cc3c4c(c2)CC(=O)N4CCC3)c1	inconclusive: 16.4 µM [cytotoxic, partial curve, poor fit]	

Single records, as listed above.
O=C(NNc1nc(-c2ccc(Br)cc2)cs1)c1ccco1 in the list: Potency: inconclusive: 29.1 µM [cytotoxic, single point]
CN(C)c1cccc(C(=O)Nc2nc3ccc(S(=O)(=O)N4CCCC4)cc3s2)c1 in the list: Potency: active: 10.3 µM

(next part)

SMILES	Potency	activity change, negative = cytotoxic
Cc1cccc(C(=O)N/N=C2\CS(=O)(=O)N(C)c3ccsc32)c1	inconclusive: 18.4 µM [cytotoxic, partial curve, poor fit]	
Cn1c(=O)c2c(nc(CN3CCN(Cc4ccccc4)CC3)n2CCN2CCOCC2)n(C)c1=O	inactive	
C=CCN1C(=O)/C(=C\c2ccc(Oc3nc(N4CCOCC4)nc(N4CCOCC4)n3)c(OC)c2)SC1=S	inactive	
CCOC(=O)C1=C(CN2CCN(c3ccc(F)cc3)CC2)NC(=O)NC1c1cccs1 (stereo unspecified)	inconclusive: 29.1 µM [cytotoxic, single point]	
COc1cc2c(cc1OC)-c1cc3ccc4c(c3c[n+]1CC2)OCO4	inconclusive: 32.6 µM [cytotoxic, single point]	
Cc1ccc(N(CC(=O)NC(C)C)C(=O)CCC(=O)Nc2ccccn2)c(C)c1	inactive	
CC(=O)Nc1ccc(NC(=O)C2CCN(S(=O)(=O)c3ccc4c(c3)CCCC(=O)N4)CC2)cc1	inactive	
Clc1cccc(Cc2c(C3CCCCC3)nc3ccc(Br)cn23)c1	inactive	
O=C(CN1CCN(Cc2ccc(Cl)cc2)CC1)N/N=C/C=C/c1ccccc1[N+](=O)[O-]	active: 20.6 µM	
Cn1nc(C(=O)OCC(=O)NCc2ccc(Cl)cc2Cl)c2ccccc2c1=O	inactive	
NC(=O)c1c(NC(=O)C(=O)N2CCOCC2)sc2c1CCC2	inactive	
O=C(Nc1ccc2nc3n(c(=O)c2c1)CCCCC3)c1cc([N+](=O)[O-])ccc1F	inconclusive: 29.1 µM [cytotoxic, single point]	
Cc1ccc(Cl)cc1N1CCN(c2cccc[n+]2C)CC1	inconclusive: 7.31 µM [cytotoxic, partial curve, poor fit]	
Cc1ccc(NC(=O)c2nc[nH]c2C(=O)NCCCCCNC(=O)OC(C)(C)C)cc1	inconclusive: 29.1 µM [cytotoxic, single point]	
COc1cccc(/C=N/Nc2nnc(C)n2N)c1O	inactive	
CCN(CC)Cc1c(C(=O)N/N=C/c2ccc(OCc3ccccc3C)cc2)nnn1-c1nonc1N	inconclusive: 32.6 µM [cytotoxic, single point]	
Cc1cccc(OCCCOc2cccc3cccnc23)c1C	inconclusive: 18.4 µM [cytotoxic, single point]	
CCN(CC(=O)Nc1c(F)cccc1F)C(=O)c1ccc(COc2ccccc2)cc1	inactive	
Cc1ccc(-n2nc(C)c3c(C(=O)OCC(=O)N(C)C4CCS(=O)(=O)C4)cc(-c4ccccc4)nc32)cc1 (stereo unspecified)	inactive	
CCOC(=O)C1=C(C)NC(SC)=C(C#N)C1CC(C)C (stereo unspecified)	active: 4.11 µM	
CC1CN(C2CCN(C(=O)COc3ccc(Cl)cc3)CC2)CC(C)O1 (stereo unspecified)	inactive	
COc1cccc(CNC(=O)c2cccc(-n3c(C)nc4cccnc43)c2C)c1	inconclusive: 23.1 µM [cytotoxic, partial curve, poor fit]	
O=C(CN1CCCC1)Nc1ccccc1Sc1ccc(Cl)cc1	inconclusive: 29.1 µM [cytotoxic, partial curve, poor fit]	
COC(=O)c1c(NC(=O)c2nc3nc(C)cc(C(F)F)n3n2)sc2c1CCC2	inactive	

SMILES	Potency	activity change, negative = cytotoxic
Cc1cnc(NC(=O)NCC2CCCC(CNC(=O)Nc3ncc(C)s3)C2)s1 (stereo unspecified)	inconclusive: 29.1 µM [cytotoxic, single point]	
Cn1c(=O)c2c(nc(N3CCNCC3)n2Cc2ccccc2Cl)n(C)c1=O	inactive	
COCCCNC(=O)c1cccc(C(=O)NCCCOC)c1	inactive	
Cc1cccc2nc(CSc3nc4[nH]ncc4c(=O)n3-c3ccccc3Cl)cc(=O)n12	inconclusive: 18.4 µM [cytotoxic, single point]	
O=C(Oc1cccc2cccnc12)c1cccs1	inconclusive: 2.31 µM [cytotoxic, partial curve, poor fit]	
Cc1ccc(S(=O)(=O)N/N=C/c2cccc(OC3CSC3)c2)cc1	inconclusive: 32.6 µM [cytotoxic, single point]	
Cc1ccc(NC(=O)c2sccc2-n2cccc2)c(C)c1		inconclusive: 32.9%
CCC(=O)N(c1nnc(SCC(=O)Nc2sccc2C(N)=O)s1)C1CC1	inactive	
CCOc1ccc(NCc2cccn2-c2nnc(N3CCC(C(=O)NCCCN4C(C)CCCC4C)CC3)s2)cc1 (stereo unspecified)	inconclusive: 18.4 µM [cytotoxic, single point]	
CC(=O)C1CN(S(=O)(=O)c2ccc(C)cc2)C(c2ccccc2)CC1C (stereo unspecified)	inactive	
COc1ccccc1CCC(=O)Nc1nc2ccccc2[nH]1	inconclusive: 29.1 µM [cytotoxic, single point]	
CC(=O)C1=C(C)NC2=C(C(=O)c3ccccc32)C1c1ccccc1 (stereo unspecified)	inconclusive: 23.1 µM [cytotoxic, single point]	
O=C(c1ccc(S(=O)(=O)N2CCCCC2)cc1)N1CCN(Cc2ccc3c(c2)OCO3)CC1	inconclusive: 18.4 µM [cytotoxic, single point]	
CCN(CC)CCNC(=O)c1cc([N+](=O)[O-])c(N(C)C)cc1OC	inconclusive: 18.4 µM [rising, partial curve, poor fit]	
Cn1c2c(c(=O)c3ccccc31)CCCC2	inactive	
CC(C)C[C@H]1CN(CCCC[C@H]2CNC(=O)C(=O)N2Cc2ccccc2)C(=O)C(=O)N1Cc1ccccc1	inconclusive: 25.9 µM [rising, single point]	
CC(=O)c1c(C)nc2sc3c(=N)n(N)cnc3c2c1-c1ccc(Cl)cc1	inconclusive: 29.1 µM [cytotoxic, single point]	
CCOC(Cn1c(SCc2cc(C(C)=O)ccc2OC)nc2ccccc2c1=O)OCC	inactive	
COC(=O)Cn1c(=O)c2c(n(Cc3ccccc3)c1=O)N/C(=C/c1ccc(OC)cc1)C2=O	inactive	
Cc1ccc2c(c1)c1c(n2CC(O)CNC2CCCC2)CCCC1 (stereo unspecified)	inconclusive: 32.6 µM [cytotoxic, partial curve, poor fit]	
CCOC(=O)N1CCN(c2c(NCc3ccc(Cl)cc3)c(=O)c2=O)CC1	active: 10.3 µM	
NC(=O)C1=C(c2ccccc2)c2ccccc2C1=O	inconclusive: 23.1 µM [cytotoxic, single point]	
O=C(NCC1CCCO1)c1ccccc1-c1nc(-c2ccc(Cl)cc2)no1 (stereo unspecified)	inconclusive: 0.058 µM [cytotoxic, full curve]	

An excerpt of the results above, for reference:
SMILES	Potency	activity change, negative = cytotoxic
Cc1ccc(NC(=O)c2sccc2-n2cccc2)c(C)c1		inconclusive: 32.9%
CCC(=O)N(c1nnc(SCC(=O)Nc2sccc2C(N)=O)s1)C1CC1	inactive	
CCOc1ccc(NCc2cccn2-c2nnc(N3CCC(C(=O)NCCCN4C(C)CCCC4C)CC3)s2)cc1 (stereo unspecified)	inconclusive: 18.4 µM [cytotoxic, single point]	
CC(=O)C1CN(S(=O)(=O)c2ccc(C)cc2)C(c2ccccc2)CC1C (stereo unspecified)	inactive	
